Assay results reported in the supplement of paper PMC10849652.
Some of the results follow.

Sequences of proteins named here, by UniProt entry; tags and fusion partners are left off. A change or cut given only in a name is not applied to a line headed by its entry.
UniProt P43487, whole entry, looked up: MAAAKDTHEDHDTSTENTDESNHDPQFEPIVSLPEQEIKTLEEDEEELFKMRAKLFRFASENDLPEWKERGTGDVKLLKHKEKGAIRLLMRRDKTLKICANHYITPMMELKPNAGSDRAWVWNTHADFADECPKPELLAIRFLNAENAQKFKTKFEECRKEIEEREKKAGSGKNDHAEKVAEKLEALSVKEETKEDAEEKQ
UniProt P20340: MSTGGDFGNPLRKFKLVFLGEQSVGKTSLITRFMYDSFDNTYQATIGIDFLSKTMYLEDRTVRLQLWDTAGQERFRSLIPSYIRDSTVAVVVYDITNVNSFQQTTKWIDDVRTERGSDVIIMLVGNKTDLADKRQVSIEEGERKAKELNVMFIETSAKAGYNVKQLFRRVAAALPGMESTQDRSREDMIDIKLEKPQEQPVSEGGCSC
UniProt Q13637: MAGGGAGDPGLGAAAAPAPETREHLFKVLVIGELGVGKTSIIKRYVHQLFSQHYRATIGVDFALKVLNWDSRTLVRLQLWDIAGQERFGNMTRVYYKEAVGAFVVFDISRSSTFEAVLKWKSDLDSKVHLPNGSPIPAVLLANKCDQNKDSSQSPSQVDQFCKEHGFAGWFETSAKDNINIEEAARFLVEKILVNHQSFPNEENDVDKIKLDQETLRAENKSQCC
UniProt Q9H0U4: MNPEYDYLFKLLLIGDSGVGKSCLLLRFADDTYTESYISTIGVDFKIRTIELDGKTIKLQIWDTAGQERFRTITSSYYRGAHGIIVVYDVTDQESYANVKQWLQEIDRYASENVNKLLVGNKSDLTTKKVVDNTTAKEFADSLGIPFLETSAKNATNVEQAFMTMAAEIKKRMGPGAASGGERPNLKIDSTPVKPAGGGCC
UniProt Q96QF0: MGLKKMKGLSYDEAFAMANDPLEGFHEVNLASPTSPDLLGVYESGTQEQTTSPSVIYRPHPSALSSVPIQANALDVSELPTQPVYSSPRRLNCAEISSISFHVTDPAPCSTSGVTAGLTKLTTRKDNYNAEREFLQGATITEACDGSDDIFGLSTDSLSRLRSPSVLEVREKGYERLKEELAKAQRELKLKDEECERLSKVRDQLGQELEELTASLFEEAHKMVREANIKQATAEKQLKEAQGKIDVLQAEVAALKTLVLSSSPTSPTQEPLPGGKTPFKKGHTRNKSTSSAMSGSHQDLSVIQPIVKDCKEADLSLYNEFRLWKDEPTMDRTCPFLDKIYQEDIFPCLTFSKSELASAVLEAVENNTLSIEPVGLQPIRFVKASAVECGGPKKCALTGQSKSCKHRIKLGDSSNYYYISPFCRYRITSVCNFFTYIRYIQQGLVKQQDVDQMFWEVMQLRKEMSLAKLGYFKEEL
UniProt Q53S08: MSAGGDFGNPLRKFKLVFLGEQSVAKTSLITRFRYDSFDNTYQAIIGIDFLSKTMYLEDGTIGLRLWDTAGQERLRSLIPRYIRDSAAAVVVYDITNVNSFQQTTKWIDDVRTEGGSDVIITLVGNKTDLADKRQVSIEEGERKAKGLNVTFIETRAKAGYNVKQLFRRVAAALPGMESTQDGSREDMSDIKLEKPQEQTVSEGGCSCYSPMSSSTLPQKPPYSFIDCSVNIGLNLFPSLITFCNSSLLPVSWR
UniProt Q9BUV8: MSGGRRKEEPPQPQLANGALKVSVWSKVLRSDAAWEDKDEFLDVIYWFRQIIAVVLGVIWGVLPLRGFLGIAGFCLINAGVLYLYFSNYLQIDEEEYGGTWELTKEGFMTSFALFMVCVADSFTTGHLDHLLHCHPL
UniProt Q15907: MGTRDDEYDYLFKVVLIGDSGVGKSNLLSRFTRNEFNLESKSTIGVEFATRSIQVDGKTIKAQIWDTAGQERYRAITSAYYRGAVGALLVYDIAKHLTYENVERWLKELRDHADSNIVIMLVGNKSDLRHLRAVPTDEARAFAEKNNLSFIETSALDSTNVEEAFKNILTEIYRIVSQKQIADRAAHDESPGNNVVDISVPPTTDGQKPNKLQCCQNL
UniProt P11216: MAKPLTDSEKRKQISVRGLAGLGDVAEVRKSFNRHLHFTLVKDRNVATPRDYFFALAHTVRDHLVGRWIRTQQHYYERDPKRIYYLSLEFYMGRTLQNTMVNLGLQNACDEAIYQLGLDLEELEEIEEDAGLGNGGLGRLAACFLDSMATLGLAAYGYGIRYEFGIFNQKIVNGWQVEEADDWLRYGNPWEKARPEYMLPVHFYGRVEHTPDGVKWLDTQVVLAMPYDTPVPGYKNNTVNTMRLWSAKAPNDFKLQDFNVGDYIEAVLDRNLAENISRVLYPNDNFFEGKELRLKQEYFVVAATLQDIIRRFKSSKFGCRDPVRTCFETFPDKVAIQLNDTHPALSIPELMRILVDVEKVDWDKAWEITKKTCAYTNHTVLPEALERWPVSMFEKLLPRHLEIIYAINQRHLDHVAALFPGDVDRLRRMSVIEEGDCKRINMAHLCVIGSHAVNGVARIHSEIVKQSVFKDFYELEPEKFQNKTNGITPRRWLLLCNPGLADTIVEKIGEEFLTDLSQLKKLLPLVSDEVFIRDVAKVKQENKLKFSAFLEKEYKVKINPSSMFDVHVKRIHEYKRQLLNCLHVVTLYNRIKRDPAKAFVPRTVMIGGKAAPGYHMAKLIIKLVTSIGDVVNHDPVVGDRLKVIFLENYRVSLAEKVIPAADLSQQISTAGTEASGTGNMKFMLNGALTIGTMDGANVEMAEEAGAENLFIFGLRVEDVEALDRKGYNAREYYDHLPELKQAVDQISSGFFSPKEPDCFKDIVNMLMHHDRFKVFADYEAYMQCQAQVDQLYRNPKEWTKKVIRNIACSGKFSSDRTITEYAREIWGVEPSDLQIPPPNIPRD
UniProt Q9H082: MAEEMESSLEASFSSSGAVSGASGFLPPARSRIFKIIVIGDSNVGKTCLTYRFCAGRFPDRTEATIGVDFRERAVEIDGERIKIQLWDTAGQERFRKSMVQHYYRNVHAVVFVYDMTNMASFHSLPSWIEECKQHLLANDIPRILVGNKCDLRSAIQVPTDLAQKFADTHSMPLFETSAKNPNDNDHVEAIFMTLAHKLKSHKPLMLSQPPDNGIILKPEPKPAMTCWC
UniProt Q9H2M9: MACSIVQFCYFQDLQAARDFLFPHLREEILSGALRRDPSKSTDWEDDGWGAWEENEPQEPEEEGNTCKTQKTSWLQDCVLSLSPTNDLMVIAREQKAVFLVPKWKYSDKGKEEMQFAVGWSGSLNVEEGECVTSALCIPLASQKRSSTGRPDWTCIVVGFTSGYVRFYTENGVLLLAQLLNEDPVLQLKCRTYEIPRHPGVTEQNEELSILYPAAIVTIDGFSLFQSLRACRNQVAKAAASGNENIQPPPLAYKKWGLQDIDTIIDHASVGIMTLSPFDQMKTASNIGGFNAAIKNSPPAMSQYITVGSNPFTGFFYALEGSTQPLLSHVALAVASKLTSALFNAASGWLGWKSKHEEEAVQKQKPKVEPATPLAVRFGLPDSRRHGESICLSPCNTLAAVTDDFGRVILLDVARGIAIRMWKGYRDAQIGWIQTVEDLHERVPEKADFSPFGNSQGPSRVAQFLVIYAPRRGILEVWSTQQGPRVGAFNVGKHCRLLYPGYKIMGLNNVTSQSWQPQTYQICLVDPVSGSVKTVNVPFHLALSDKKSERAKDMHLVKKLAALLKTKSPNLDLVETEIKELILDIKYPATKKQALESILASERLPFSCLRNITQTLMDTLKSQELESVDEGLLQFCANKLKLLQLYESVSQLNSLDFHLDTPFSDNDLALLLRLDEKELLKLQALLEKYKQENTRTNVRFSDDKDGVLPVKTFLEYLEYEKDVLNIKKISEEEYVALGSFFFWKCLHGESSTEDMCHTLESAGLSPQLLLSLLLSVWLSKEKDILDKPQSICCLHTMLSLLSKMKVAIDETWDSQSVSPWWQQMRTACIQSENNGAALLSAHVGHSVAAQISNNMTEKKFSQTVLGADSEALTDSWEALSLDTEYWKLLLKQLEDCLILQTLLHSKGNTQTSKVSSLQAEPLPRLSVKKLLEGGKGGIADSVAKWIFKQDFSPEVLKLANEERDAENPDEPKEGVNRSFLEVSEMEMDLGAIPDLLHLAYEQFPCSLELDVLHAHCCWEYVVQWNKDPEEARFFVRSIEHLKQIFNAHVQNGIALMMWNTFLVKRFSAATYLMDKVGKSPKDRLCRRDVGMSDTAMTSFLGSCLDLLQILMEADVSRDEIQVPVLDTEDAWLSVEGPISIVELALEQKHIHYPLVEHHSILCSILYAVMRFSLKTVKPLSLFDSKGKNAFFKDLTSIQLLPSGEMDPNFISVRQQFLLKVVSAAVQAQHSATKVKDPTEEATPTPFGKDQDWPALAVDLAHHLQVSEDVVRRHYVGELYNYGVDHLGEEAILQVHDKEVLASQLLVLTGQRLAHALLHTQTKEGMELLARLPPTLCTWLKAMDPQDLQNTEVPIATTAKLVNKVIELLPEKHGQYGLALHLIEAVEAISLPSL
UniProt Q5HYI8: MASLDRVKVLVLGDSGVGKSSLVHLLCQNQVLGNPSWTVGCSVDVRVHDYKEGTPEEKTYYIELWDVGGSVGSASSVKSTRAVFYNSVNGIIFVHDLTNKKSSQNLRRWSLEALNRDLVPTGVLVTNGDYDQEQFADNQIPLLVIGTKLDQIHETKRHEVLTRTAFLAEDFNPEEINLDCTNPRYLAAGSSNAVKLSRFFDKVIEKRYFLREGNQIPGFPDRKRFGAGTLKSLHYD
UniProt P61224: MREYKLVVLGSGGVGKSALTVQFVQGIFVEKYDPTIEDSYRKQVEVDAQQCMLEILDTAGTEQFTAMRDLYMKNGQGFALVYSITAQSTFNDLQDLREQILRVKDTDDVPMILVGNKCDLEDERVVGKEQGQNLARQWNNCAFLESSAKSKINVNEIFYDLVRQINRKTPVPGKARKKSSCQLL
UniProt Q969Q5: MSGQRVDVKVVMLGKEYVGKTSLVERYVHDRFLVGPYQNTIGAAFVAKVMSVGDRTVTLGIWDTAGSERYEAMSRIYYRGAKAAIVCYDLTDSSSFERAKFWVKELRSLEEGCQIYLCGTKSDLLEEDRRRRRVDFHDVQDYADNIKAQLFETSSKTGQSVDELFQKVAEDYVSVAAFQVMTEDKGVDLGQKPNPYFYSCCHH
UniProt P62834: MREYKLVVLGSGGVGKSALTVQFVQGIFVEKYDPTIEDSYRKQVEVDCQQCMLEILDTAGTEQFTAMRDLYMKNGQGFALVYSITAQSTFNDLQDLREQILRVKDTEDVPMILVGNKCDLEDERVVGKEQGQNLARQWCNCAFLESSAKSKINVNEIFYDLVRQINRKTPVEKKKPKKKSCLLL
UniProt Q15042: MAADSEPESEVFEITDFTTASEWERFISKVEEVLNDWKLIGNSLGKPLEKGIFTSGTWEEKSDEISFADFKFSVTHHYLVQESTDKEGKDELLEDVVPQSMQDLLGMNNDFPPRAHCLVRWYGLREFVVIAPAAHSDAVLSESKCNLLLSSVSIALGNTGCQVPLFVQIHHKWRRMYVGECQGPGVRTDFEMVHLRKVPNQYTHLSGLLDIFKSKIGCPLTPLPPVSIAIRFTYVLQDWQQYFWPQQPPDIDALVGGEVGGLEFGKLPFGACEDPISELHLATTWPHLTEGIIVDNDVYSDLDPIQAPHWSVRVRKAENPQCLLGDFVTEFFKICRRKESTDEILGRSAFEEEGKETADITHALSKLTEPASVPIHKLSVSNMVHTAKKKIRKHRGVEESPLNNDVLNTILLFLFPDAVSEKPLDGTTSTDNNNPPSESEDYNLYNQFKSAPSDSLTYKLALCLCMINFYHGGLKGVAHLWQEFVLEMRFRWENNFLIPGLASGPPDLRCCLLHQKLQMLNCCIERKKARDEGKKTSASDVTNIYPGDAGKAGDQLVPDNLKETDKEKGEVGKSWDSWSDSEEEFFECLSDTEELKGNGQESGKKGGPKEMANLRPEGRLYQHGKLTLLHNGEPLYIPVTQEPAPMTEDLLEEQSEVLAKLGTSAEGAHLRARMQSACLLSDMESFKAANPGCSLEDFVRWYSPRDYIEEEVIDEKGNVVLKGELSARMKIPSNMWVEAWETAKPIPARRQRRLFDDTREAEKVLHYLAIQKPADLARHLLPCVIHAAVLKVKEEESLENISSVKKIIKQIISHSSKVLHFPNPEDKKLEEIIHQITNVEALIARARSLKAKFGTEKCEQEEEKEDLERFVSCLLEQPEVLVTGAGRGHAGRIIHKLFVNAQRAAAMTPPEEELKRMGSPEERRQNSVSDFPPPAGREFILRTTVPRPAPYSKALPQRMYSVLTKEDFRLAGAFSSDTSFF
UniProt Q9BXR0: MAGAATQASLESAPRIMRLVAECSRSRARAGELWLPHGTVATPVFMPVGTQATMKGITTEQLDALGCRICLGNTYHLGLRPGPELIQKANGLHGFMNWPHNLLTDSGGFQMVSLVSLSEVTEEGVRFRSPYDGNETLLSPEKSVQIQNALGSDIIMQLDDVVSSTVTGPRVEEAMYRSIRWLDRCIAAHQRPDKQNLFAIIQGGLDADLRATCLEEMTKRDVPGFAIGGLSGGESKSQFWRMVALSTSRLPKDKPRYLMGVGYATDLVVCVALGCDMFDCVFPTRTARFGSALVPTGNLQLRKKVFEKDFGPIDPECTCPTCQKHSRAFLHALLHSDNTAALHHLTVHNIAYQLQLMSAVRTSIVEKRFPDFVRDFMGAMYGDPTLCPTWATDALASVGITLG

Experiments:
Test in all cases: log2 fold change, soluble protein after heating vs DMSO (PISA); higher = thermal stabilisation; K562 lysate, 10 uM; active = over 0.2 and 3.5 SD of the protein, either way, in both replicates (recomputed)
[1] = compound: C1=CC=C(C=C1)[C@H](COC2=CC3=C(C=C2)NC(=O)N3)NC(=O)C4=CC=CN(C4=O)CC5=CC(=C(C=C5)F)F
Summary of the method: (§1)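 Log-two fold change in thermal stability relative to solvent controls is reported from duplicates. For each sample, crude K562 extract from dounce-homogenised pellets in PBS pH 7.4 with 1 mM MgCl2, at 1 mg/mL protein, was treated with 10 μM compound for 30 min. Aliquots heated for 3 min across 48°C-58°C were pooled, brought to 0.5% NP-40 at 4°C and cleared at 21,000xg for 90 min. The supernatant was quantified by TMTpro 16plex LC-MS/MS with channel sums equalised.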

[2] = compound: CC1=C(SC2=C1C(=N[C@H](C3=NN=C(N32)C)CC(=O)N)C4=CC=C(C=C4)Cl)C
Summary of the method: as §1

[3] = compound: CC1=C2C(=CC=C1)N=C(N(C2=O)C3=CC=CC=C3C)CN4C=NC5=C(N=CN=C54)N
Summary of the method: as §1

[4] = compound: Cc1sc2c(c1C)C(c1ccc(Cl)cc1)=N[C@@H](CC(=O)OC(C)(C)C)c1nnc(C)n1-2
Summary of the method: as §1

[5] = compound: c1ccc([C@@H]2C[C@H]2NC2CCNCC2)cc1
Summary of the method: as §1

Measured: log2 fold change

RANBP1 (UniProt P43487)
inactive: [1] 0.003 | [2] -0.009 | [3] -0.005 | [4] 0.009 | [5] -0.038

PXMP2 (UniProt Q9NR77)
inactive: [1] -0.036 | [2] 0.041 | [3] -0.003 | [4] -0.003 | [5] -0.019

RAB28 (UniProt P51157)
inactive: [1] 0.007 | [2] 0.017 | [3] 0.02 | [4] -0.02 | [5] 0.02

RAD50 isoform 2 (UniProt Q92878)
inactive: [1] -0.002 | [2] -0.031 | [3] 0.004 | [4] 0.008 | [5] 0.009

RAB6A isoform 4 (UniProt P20340)
inactive: [1] -0.024 | [2] 0.005 | [3] -0.031 | [4] -0.048 | [5] 0.004

RAP2B (UniProt P61225)
inactive: [1] -0.02 | [2] -0.003 | [3] 0.048 | [4] -0.037 | [5] -0.048

QRICH1 (UniProt Q2TAL8)
inactive: [1] -0.019 | [2] -0.007 | [3] -0.004 | [4] 0.047 | [5] 0.03

RAB11FIP1 (UniProt Q6WKZ4)
inactive: [1] 0.051 | [2] 0.023 | [3] 0.049 | [4] -0.011 | [5] 0.017

RAP2A (UniProt P10114)
inactive: [1] -0.014 | [2] 0.008 | [3] -0.037 | [4] 0.002 | [5] 0.064

R3HCC1 (UniProt Q9Y3T6)
inactive: [1] 0.014 | [2] 0.015 | [3] 0.006 | [4] -0.014 | [5] -0.047

QTRT2 isoform 4 (UniProt Q9H974)
inactive: [1] -0.004 | [2] 0.014 | [3] -0.03 | [4] -0.019 | [5] -0.157

RAB32 (UniProt Q13637)
inactive: [1] -0.039 | [2] 0.049 | [3] -0.003 | [4] -0.077 | [5] -0.021

RABEP2 (UniProt Q9H5N1)
inactive: [1] -0.005 | [2] 0.005 | [3] 0.057 | [4] -0.027 | [5] 0.044

PXN isoform 3 (UniProt P49023)
inactive: [1] 0.117 | [2] -0.06 | [3] -0.029 | [4] 0.068 | [5] -0.054

RAB18 (UniProt Q9NP72)
inactive: [1] -0.029 | [2] -0.021 | [3] 0.033 | [4] 0.051 | [5] -0.004

RAD21 (UniProt O60216)
inactive: [1] 0.013 | [2] 0.024 | [3] -0.004 | [4] 0.02 | [5] -0.03

QDPR (UniProt P09417)
inactive: [1] 0.005 | [2] 0.012 | [3] 0.001 | [4] 0.013 | [5] -0.008

RAB1B (UniProt Q9H0U4)
inactive: [1] -0.015 | [2] 0.021 | [3] 0.056 | [4] 0.013 | [5] -0.17

RANBP3 (UniProt Q9H6Z4)
inactive: [1] 0.027 | [2] -0.002 | [3] 0.023 | [4] -0.021 | [5] -0.006

RANBP17 (UniProt Q9H2T7)
inactive: [1] -0.191 | [2] -0.261 | [3] 0.063 | [4] -0.18 | [5] -0.112

RAD17 (UniProt O75943)
inactive: [1] -0.031 | [2] -0.077 | [3] 0.047 | [4] -0.066 | [5] 0.002

RABGAP1 (UniProt Q9Y3P9)
inactive: [1] 0.023 | [2] 0.013 | [3] 0.031 | [4] 0.003 | [5] -0.002

RAD23A (UniProt P54725)
inactive: [1] -0.05 | [2] -0.067 | [3] -0.02 | [4] 0.003 | [5] -0.008

RABEP1 (UniProt Q15276)
inactive: [1] 0.023 | [2] 0.012 | [3] 0.033 | [4] -0.029 | [5] -0.037

RAB21 (UniProt Q9UL25)
inactive: [1] -0.086 | [2] 0.036 | [3] 0.019 | [4] 0.055 | [5] 0.127

PYROXD1 (UniProt Q8WU10)
inactive: [1] 0.035 | [2] 0.004 | [3] 0.188 | [4] 0.039 | [5] -0.066

PYCR3 (UniProt Q53H96)
inactive: [1] 0.015 | [2] -0.054 | [3] 0.033 | [4] 0.003 | [5] -0.036

RAB3IP (UniProt Q96QF0)
inactive: [1] 0.059 | [2] 0.003 | [3] 0.139 | [4] 0.015 | [5] -0.028

RAB6D (UniProt Q53S08)
inactive: [1] -0.045 | [2] 0.01 | [3] 0.034 | [4] -0.003 | [5] -0.045

RANBP10 (UniProt Q6VN20)
inactive: [1] 0.056 | [2] 0.028 | [3] 0.044 | [4] 0.05 | [5] 0.011

RAP1GAP isoform 4 (UniProt P47736)
inactive: [1] 0.019 | [2] -0.012 | [3] -0.019 | [4] -0.009 | [5] 0.007

RAB5IF isoform 5 (UniProt Q9BUV8)
inactive: [1] 0.01 | [2] -0.096 | [3] 0.019 | [4] -0.085 | [5] 0.364

RAB18 isoform 2 (UniProt Q9NP72)
inactive: [1] 0.006 | [2] -0.009 | [3] 0.06 | [4] -0.004 | [5] -0.081

RAB23 (UniProt Q9ULC3)
inactive: [1] 0.074 | [2] -0.032 | [3] 0.037 | [4] 0.042 | [5] -0.061

RAB11B (UniProt Q15907)
inactive: [1] -0.029 | [2] 0.01 | [3] 0.013 | [4] -0.002 | [5] -0.014

PYGB (UniProt P11216)
inactive: [1] -0.013 | [2] -0.013 | [3] 0.002 | [4] -0.029 | [5] 0.037

RAB31 (UniProt Q13636)
inactive: [1] -0.019 | [2] -0.041 | [3] 0.01 | [4] 0.033 | [5] -0.05

RAB33B (UniProt Q9H082)
inactive: [1] 0.086 | [2] -0.079 | [3] 0.012 | [4] -0.056 | [5] 0.101

R3HDM1 isoform 3 (UniProt Q15032)
inactive: [1] 0.036 | [2] 0.035 | [3] 0.079 | [4] -0.029 | [5] 0.171

RAB12 (UniProt Q6IQ22)
inactive: [1] 0.021 | [2] 0.021 | [3] 0.005 | [4] -0.013 | [5] -0.013

RAB3GAP2 (UniProt Q9H2M9)
inactive: [1] 0.015 | [2] -0.002 | [3] 0.032 | [4] 0.041 | [5] 0.026

RABL3 (UniProt Q5HYI8)
inactive: [1] -0.044 | [2] -0.021 | [3] 0.004 | [4] 0.017 | [5] 0.03

RAP1B (UniProt P61224)
inactive: [1] 0.006 | [2] -0.023 | [3] 0.032 | [4] 0.055 | [5] 0.02

RAB5B (UniProt P61020)
inactive: [1] 0.007 | [2] 0.057 | [3] -0.006 | [4] 0.042 | [5] 0.039

RAB27A (UniProt P51159)
inactive: [1] 0.052 | [2] 0.028 | [3] -0.007 | [4] -0.013 | [5] 0.181

RABGAP1L isoform 3 (UniProt Q5R372)
inactive: [1] -0.003 | [2] 0.067 | [3] 0.017 | [4] -0.019 | [5] -0.01

RAB24 (UniProt Q969Q5)
inactive: [1] 0.01 | [2] 0 | [3] 0.048 | [4] -0.011 | [5] 0.041

4 entries picked at random from the list so far, as already listed:
RAB5B (UniProt P61020)
inactive: [1] 0.007 | [2] 0.057 | [3] -0.006 | [4] 0.042 | [5] 0.039

RAP1B (UniProt P61224)
inactive: [1] 0.006 | [2] -0.023 | [3] 0.032 | [4] 0.055 | [5] 0.02

RABL3 (UniProt Q5HYI8)
inactive: [1] -0.044 | [2] -0.021 | [3] 0.004 | [4] 0.017 | [5] 0.03

RAB3GAP2 (UniProt Q9H2M9)
inactive: [1] 0.015 | [2] -0.002 | [3] 0.032 | [4] 0.041 | [5] 0.026

(further entries)

RAB35 (UniProt Q15286)
inactive: [1] 0.031 | [2] -0.036 | [3] 0.039 | [4] -0.039 | [5] 0.004

RAP1A (UniProt P62834)
inactive: [1] -0.018 | [2] 0.04 | [3] 0.009 | [4] 0.071 | [5] -0.003

RAB3GAP1 (UniProt Q15042)
inactive: [1] 0.021 | [2] -0.014 | [3] -0.011 | [4] 0.036 | [5] 0.026

RAB13 (UniProt P51153)
inactive: [1] 0.002 | [2] -0.064 | [3] 0.034 | [4] 0.064 | [5] 0.06

QTRT1 (UniProt Q9BXR0)
inactive: [1] 0.019 | [2] 0.007 | [3] 0.024 | [4] -0.005 | [5] -0.087
